Record: PubChem BioAssay AID1259424 (University of Nebraska Medical Center, 2018)
This is one part, drawn at random, of about 14,000 reagents tested. 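Higher correlation or smaller distance means closer resemblance to KSR1 loss; control wells, including KSR1 knockdowns, recur on many plates.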 The numbers tell different reagents against one gene apart. A reagent listed more than once was tested more than once; the source does not tell the runs apart. Not all columns of the deposit are shown. Not given: the time to read-out.

Test: 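Find knockdowns that reproduce the expression shifts seen after KSR1 loss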 (primary screen)
Cells: human HCT116 colon cancer cells
Reagent: siRNA pool against human genes, 50 nM
Measured: 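Six signature mRNAs by branched-DNA multiplex assay, scaled to two housekeeping genes and non-targeting median, log2; matched to mean KSR1 knockdown profile by Pearson correlation and euclidean distance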
Direction: mean correlation with KSR1 profile: higher = expression change more like KSR1 knockdown

mean correlation with KSR1 profile	Target gene	pool no.
-0.145	UHMK1 (U2AF homology motif kinase 1)	1
-0.226	KDELR1 (KDEL endoplasmic reticulum protein retention receptor 1)	1
0.147	GAS8-AS1 (GAS8 antisense RNA 1)	1
-0.412	WDPCP (WD repeat containing planar cell polarity effector)	1
-0.836	TYW2 (tRNA wybutosine-synthesizing protein 2)	1
0.457	ATXN7 (ataxin 7)	1
-0.255	SUMO1 (small ubiquitin like modifier 1)	1
-0.235	TPSAB1 (tryptase alpha/beta 1)	1
-0.35	TPSAB1 (tryptase alpha/beta 1)	2
-0.594	ERLEC1 (endoplasmic reticulum lectin 1)	1
-0.352	PKP4 (plakophilin 4)	1
0.512	CD9 (CD9 molecule)	1
-0.0495	MED9 (mediator complex subunit 9)	1
0.437	TRPT1 (tRNA phosphotransferase 1)	1
0.764	FYRD1 (FYRN and FYRC domains INO80 complex interactor 1)	1
-0.117	OGT (O-linked N-acetylglucosamine (GlcNAc) transferase)	1
-0.502	TRIM58 (tripartite motif containing 58)	1
0.338	ZNF26 (zinc finger protein 26)	1
0.17	UCHL3 (ubiquitin C-terminal hydrolase L3)	1
-0.673	TPI1 (triosephosphate isomerase 1)	1
0.555	IL6ST (interleukin 6 cytokine family signal transducer)	1
0.389	PIGB (phosphatidylinositol glycan anchor biosynthesis class B)	1
0.264	PSPC1 (paraspeckle component 1)	1
0.885	ZNF28 (zinc finger protein 28)	1

The list goes on (3 carried over from the part before).
mean correlation with KSR1 profile	Target gene	pool no.
0.389	PIGB (phosphatidylinositol glycan anchor biosynthesis class B)	1
0.264	PSPC1 (paraspeckle component 1)	1
0.885	ZNF28 (zinc finger protein 28)	1
-0.483	ADAMTS3 (ADAM metallopeptidase with thrombospondin type 1 motif 3)	1
-0.288	NUDT15 (nudix hydrolase 15)	1
0.00337	IFI27 (interferon alpha inducible protein 27)	1
0.772	ADGRA2 (adhesion G protein-coupled receptor A2)	1
-0.265	NOP2 (NOP2 nucleolar protein)	1
-0.744	ANKRD6 (ankyrin repeat domain 6)	1
-0.0853	GSTM4 (glutathione S-transferase mu 4)	1
0.403	AVPR1B (arginine vasopressin receptor 1B)	1
0.317	AVPR1B (arginine vasopressin receptor 1B)	1
0.661	ATP12A (ATPase H+/K+ transporting non-gastric alpha2 subunit)	1
-0.293	CD248 (CD248 molecule)	1
0.378	OBSL1 (obscurin like cytoskeletal adaptor 1)	1
0.442	RPP21 (ribonuclease P subunit p21)	1
-0.359	ESRP2 (epithelial splicing regulatory protein 2)	1
0.169	TEX264 (testis expressed 264, ER-phagy receptor)	1
-0.163	SLC16A3	1
-0.0909	DEFA6 (defensin alpha 6)	1
-0.325	WDR12 (WD repeat domain 12)	1
-0.0544	MYO1E (myosin IE)	1
0.149	TAB2 (TGF-beta activated kinase 1 (MAP3K7) binding protein 2)	1
-0.246	MAGEA11 (MAGE family member A11)	1
-0.595	FKBP1B (FKBP prolyl isomerase 1B)	1
0.25	G3BP2 (G3BP stress granule assembly factor 2)	1
0.395	OFD1 (OFD1 centriole and centriolar satellite protein)	1
0.223	HSD11B2 (hydroxysteroid 11-beta dehydrogenase 2)	1
-0.00132	SEMA5A (semaphorin 5A)	1
